In the experiment the target is T1, TRPC6 channel (rat (endogenous in cultured rat podocytes)) (UniProt Q99N78).
T1 sequence: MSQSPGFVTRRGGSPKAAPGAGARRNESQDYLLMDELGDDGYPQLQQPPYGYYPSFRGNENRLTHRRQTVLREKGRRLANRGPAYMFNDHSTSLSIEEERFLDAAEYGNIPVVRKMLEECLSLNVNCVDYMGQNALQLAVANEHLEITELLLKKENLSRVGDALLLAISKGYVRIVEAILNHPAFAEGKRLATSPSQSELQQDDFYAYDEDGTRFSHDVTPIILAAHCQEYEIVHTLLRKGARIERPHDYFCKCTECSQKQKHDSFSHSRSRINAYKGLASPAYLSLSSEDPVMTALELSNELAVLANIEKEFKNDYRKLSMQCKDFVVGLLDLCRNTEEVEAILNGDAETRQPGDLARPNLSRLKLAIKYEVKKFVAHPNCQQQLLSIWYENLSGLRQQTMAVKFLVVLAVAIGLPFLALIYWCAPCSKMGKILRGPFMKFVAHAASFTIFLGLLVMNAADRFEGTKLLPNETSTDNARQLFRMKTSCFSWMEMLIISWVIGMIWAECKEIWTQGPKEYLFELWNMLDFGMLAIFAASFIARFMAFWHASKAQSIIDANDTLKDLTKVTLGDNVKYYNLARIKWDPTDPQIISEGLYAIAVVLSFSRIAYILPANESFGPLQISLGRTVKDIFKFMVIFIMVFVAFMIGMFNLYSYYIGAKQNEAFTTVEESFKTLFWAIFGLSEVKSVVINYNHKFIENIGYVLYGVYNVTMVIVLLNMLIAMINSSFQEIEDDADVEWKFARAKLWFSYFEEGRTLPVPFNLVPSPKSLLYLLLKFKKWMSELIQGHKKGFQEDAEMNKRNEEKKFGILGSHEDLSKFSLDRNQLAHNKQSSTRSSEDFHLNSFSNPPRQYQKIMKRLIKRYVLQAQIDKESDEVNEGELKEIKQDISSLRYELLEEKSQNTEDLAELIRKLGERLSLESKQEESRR
In words: co-IP.

Amino acid sequences for entries named in this document (tags omitted).
UniProt P54645: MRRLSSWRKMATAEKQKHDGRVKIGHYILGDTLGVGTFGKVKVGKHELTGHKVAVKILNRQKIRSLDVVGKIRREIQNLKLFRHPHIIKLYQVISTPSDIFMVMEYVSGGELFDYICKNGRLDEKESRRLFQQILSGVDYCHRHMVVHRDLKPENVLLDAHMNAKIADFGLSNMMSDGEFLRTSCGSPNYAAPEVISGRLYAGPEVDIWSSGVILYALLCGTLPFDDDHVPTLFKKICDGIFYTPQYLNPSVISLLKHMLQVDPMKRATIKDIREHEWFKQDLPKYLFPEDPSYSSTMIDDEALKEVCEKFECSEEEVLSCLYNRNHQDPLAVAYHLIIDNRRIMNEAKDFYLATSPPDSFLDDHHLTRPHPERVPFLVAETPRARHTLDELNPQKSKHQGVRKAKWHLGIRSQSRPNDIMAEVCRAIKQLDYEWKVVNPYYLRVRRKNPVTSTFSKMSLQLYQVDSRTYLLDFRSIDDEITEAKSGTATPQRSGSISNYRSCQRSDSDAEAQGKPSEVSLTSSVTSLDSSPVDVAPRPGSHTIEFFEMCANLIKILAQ
UniProt Q09137: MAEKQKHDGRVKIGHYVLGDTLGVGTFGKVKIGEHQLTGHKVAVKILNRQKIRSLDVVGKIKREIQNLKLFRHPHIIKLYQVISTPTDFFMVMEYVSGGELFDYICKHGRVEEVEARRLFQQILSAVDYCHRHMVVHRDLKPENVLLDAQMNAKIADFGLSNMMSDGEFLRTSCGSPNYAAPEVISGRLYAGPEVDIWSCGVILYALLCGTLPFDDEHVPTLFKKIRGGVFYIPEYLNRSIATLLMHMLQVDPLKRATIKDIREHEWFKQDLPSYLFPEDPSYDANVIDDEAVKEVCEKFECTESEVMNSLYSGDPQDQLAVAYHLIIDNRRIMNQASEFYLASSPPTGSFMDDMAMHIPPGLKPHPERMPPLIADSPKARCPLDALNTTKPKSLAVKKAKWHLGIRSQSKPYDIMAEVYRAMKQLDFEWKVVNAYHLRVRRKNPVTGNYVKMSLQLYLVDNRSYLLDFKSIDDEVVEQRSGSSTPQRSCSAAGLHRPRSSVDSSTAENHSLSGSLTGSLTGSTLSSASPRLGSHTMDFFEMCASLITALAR

No constants are given. Whether binding was seen depends on the method and setting. Binding seen in cells or lysates may run through a third protein. Some entries that bind do so weakly or less than the wild type.

With “AMP-activated protein kinase α1 subunit (from UniProt P54645 1-559)”, the binding result is on record as “binds”.

For “AMP-activated protein kinase α2 subunit (from UniProt Q09137 1-552)”, the binding entry is reported as “binds”.

The values above are taken from doi:10.1101/278911.
